Experimental data from the supplement of paper PMC10849652.
This is one part of the list.

The chains behind the UniProt entries cited, without tags or fusion partners. Where a name states a change or a piece, a line headed by the entry shows the natural chain unless it says otherwise.
UniProt Q8TAP6: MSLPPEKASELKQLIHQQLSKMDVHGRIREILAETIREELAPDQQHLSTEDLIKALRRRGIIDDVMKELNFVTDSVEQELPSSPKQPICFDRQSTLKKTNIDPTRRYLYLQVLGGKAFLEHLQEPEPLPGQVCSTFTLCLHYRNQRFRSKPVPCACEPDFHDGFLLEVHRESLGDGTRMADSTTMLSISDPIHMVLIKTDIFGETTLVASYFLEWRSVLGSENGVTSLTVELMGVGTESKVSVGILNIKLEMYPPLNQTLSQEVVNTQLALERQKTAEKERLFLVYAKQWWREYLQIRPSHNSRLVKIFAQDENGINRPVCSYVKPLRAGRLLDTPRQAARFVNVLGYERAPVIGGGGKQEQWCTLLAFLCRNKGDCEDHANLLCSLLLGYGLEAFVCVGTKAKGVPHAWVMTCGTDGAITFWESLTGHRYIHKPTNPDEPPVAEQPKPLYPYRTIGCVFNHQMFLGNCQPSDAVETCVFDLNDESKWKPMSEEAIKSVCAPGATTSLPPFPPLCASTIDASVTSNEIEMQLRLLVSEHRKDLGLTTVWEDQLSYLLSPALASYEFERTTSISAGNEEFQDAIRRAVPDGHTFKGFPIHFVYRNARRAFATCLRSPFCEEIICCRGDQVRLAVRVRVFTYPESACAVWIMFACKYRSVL
UniProt Q66GS9: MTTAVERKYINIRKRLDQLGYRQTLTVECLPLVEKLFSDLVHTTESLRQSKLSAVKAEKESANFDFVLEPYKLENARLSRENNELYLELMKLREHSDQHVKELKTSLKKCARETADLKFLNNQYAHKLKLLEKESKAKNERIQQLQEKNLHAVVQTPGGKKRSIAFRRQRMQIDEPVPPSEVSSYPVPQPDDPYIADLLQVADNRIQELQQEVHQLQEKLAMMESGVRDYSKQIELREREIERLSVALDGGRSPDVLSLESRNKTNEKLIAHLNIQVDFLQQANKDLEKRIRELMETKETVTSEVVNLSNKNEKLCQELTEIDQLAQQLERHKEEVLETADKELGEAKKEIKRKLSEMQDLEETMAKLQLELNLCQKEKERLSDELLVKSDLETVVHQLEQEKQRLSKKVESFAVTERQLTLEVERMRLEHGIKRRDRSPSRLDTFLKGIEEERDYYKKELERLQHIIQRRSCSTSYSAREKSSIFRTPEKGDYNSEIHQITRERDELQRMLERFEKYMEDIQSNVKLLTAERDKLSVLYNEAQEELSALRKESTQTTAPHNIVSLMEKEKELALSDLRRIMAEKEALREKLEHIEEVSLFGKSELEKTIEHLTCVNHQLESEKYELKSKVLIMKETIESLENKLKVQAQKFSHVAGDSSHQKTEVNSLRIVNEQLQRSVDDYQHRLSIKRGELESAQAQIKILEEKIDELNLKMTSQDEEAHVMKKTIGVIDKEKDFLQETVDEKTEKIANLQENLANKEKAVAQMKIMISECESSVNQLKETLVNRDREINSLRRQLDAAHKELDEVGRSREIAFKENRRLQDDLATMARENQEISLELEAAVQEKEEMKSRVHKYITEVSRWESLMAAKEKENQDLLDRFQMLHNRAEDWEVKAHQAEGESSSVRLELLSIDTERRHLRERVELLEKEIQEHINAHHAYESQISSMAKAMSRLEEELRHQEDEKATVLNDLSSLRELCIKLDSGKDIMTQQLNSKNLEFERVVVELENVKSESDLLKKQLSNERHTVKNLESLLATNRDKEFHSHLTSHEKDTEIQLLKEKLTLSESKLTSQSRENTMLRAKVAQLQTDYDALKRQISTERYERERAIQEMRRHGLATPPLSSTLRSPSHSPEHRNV
UniProt O14735: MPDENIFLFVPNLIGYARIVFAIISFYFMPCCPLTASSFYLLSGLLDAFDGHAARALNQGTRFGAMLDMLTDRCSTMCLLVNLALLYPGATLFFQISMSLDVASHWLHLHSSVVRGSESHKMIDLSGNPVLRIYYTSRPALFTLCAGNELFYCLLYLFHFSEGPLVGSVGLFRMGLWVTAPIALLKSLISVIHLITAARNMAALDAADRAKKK
UniProt O15182: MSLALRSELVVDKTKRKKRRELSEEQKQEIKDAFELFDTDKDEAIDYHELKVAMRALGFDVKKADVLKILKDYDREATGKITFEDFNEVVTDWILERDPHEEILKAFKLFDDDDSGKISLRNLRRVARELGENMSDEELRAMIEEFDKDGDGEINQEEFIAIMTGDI
UniProt Q9NYV4, whole entry, looked up: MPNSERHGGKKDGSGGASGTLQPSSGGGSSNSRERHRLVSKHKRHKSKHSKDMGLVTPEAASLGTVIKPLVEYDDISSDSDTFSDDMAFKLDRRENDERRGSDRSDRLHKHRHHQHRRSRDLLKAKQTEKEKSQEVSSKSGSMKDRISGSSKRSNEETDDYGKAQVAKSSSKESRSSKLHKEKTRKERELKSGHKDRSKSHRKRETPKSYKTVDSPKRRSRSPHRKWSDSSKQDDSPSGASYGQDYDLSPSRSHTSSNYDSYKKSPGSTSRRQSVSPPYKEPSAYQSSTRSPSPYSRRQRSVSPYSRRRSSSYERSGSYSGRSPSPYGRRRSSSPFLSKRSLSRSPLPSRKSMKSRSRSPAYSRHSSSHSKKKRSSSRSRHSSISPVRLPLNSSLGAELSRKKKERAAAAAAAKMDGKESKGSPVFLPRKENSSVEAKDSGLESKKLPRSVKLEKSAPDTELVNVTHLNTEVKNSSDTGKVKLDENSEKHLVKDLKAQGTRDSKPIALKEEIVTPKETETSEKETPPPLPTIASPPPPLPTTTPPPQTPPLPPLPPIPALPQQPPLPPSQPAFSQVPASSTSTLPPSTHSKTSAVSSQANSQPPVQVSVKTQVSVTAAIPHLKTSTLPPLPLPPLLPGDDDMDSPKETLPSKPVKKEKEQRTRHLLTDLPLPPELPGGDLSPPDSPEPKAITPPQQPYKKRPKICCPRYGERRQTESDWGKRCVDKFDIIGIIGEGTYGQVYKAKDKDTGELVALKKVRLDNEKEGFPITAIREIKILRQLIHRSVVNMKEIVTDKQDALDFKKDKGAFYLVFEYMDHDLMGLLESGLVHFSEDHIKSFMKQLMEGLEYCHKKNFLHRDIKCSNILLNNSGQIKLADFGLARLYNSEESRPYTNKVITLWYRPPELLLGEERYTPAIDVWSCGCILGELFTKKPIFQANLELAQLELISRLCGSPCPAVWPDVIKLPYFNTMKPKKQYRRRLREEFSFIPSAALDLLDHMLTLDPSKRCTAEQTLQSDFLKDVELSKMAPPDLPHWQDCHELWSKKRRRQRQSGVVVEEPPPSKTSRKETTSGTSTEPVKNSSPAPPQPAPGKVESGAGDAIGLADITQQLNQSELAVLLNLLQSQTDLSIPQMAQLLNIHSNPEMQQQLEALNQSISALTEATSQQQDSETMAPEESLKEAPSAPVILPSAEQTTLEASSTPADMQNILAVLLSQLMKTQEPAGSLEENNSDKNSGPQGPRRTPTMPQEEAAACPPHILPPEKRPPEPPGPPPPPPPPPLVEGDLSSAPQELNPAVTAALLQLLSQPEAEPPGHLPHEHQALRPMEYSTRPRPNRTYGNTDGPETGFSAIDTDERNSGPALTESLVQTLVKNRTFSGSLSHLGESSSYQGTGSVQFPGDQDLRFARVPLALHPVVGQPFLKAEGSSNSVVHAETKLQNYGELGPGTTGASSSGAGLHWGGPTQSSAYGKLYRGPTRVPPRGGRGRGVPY
UniProt Q9BS16: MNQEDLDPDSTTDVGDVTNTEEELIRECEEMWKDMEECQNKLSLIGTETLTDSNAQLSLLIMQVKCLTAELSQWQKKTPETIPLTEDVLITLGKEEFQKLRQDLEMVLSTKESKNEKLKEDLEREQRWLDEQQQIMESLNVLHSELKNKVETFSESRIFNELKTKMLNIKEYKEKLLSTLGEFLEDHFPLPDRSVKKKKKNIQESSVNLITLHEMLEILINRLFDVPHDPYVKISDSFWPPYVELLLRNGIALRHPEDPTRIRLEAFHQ
UniProt Q6ZMG9: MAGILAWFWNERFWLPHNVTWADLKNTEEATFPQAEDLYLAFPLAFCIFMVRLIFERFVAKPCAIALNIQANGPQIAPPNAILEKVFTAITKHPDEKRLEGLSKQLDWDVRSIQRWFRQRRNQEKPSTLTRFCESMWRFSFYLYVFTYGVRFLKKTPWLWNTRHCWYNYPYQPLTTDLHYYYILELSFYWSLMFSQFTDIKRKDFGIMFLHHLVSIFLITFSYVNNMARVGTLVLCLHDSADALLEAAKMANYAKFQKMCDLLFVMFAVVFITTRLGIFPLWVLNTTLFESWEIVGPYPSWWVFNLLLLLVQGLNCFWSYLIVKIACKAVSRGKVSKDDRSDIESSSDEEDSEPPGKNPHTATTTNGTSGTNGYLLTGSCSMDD
UniProt P11802: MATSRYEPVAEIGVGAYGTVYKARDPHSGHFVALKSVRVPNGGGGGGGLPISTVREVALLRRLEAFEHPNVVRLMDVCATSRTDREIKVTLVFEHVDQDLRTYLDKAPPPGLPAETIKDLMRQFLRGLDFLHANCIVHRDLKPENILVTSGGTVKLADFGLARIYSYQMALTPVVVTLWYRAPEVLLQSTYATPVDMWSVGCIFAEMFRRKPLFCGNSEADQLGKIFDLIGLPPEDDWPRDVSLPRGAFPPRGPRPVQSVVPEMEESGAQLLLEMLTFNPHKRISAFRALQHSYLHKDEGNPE
UniProt P48960: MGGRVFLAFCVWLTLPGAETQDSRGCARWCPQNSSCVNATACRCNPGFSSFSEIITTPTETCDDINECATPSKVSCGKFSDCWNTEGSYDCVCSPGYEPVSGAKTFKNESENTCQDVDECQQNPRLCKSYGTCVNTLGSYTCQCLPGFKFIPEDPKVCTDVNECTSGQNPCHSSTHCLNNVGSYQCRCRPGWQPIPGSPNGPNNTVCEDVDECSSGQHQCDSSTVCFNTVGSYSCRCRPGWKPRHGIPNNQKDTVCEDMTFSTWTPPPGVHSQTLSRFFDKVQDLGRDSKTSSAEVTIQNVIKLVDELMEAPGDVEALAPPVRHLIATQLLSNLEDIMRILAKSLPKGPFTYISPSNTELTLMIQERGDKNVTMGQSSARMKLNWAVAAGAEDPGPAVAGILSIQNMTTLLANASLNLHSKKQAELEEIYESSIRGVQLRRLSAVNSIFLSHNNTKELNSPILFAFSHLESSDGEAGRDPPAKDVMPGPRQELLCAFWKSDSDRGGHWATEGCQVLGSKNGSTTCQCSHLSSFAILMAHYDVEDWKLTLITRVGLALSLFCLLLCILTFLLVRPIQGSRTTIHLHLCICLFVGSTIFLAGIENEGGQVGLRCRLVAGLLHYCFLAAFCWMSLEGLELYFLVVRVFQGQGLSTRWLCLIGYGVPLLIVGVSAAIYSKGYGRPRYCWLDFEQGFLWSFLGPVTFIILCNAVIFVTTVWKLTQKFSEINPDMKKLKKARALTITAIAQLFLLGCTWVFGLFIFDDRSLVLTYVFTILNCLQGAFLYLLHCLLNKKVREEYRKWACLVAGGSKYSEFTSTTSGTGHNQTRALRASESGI

Legend:
Experiment in all cases: log2 fold change, soluble protein after heating vs DMSO (PISA); higher = thermal stabilisation; K562 lysate, 10 uM; active = over 0.2 and 3.5 SD of the protein, either way, in both replicates (recomputed)
[1] = compound: C1=CC=C(C=C1)[C@H](COC2=CC3=C(C=C2)NC(=O)N3)NC(=O)C4=CC=CN(C4=O)CC5=CC(=C(C=C5)F)F
Procedure, shortened: (§1)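 Soluble protein was defined as the supernatant remaining after 21,000xg for 90 min, following pooling of heated aliquots and adjustment to 0.5% NP-40 at 4°C. Before that, crude K562 extract at 1 mg/mL protein in PBS pH 7.4 with 1 mM MgCl2 was treated with 10 μM compound for 30 min and heated for 3 min across 48°C-58°C. Quantification used TMTpro 16plex LC-MS/MS with channel sums equalised, and values are log-two fold changes in thermal stability relative to solvent controls from duplicates.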

[2] = compound: CC1=C(SC2=C1C(=N[C@H](C3=NN=C(N32)C)CC(=O)N)C4=CC=C(C=C4)Cl)C
Procedure, shortened: as §1

[3] = compound: CC1=C2C(=CC=C1)N=C(N(C2=O)C3=CC=CC=C3C)CN4C=NC5=C(N=CN=C54)N
Procedure, shortened: as §1

[4] = compound: Cc1sc2c(c1C)C(c1ccc(Cl)cc1)=N[C@@H](CC(=O)OC(C)(C)C)c1nnc(C)n1-2
Procedure, shortened: as §1

[5] = compound: c1ccc([C@@H]2C[C@H]2NC2CCNCC2)cc1
Procedure, shortened: as §1

Measured: log2 fold change

CEP76 (UniProt Q8TAP6)
inactive: [1] -0.009 | [2] -0.01 | [3] -0.043 | [4] 0.002 | [5] -0.027

CEP135 (UniProt Q66GS9)
inactive: [1] 0 | [2] -0.007 | [3] 0.008 | [4] 0.012 | [5] 0.017

CDIPT (UniProt O14735)
inactive: [1] 0.007 | [2] -0.036 | [3] 0.027 | [4] -0.048 | [5] -0.013

CETN3 (UniProt O15182)
inactive: [1] 0.049 | [2] -0.012 | [3] -0.006 | [4] -0.013 | [5] -0.021

CDK12 (UniProt Q9NYV4)
inactive: [1] -0.04 | [2] 0.032 | [3] -0.004 | [4] -0.025 | [5] -0.03

CENPK (UniProt Q9BS16)
inactive: [1] 0.019 | [2] -0.009 | [3] 0.104 | [4] 0.019 | [5] 0.033

CERS6 isoform 2 (UniProt Q6ZMG9)
inactive: [1] 0.132 | [2] -0.044 | [3] 0.012 | [4] -0.049 | [5] 0.005

CDK4 (UniProt P11802)
inactive: [1] 0.029 | [2] -0.006 | [3] -0.02 | [4] 0.045 | [5] -0.102

CD97 (UniProt P48960)
inactive: [1] 0.018 | [2] 0.007 | [3] -0.051 | [4] 0.006 | [5] -0.056
